Experimental data published in EP0296574A2 (F. HOFFMANN-LA ROCHE AG, priority 1987, dated 1988).
For part of these data: Some peptides are written in HELM: one residue between dots, names in brackets for other building blocks, links after the first $. [ ]: non-standard residue; d: D form. NMeF = CN[C@@H](Cc1ccccc1)C(=O)O; Nle = CCCC[C@H](N)C(=O)O

Legend:
[1] = general procedure: Boc solid-phase peptide synthesis; BHA resin; symmetrical anhydrides of Boc amino acids; conditions: whole synthesis
[2] = general procedure: Boc solid-phase peptide synthesis; benzhydrylamine (BHA) resin, styrene-1% divinylbenzene, 200-400 mesh (Beckman Instruments); symmetrical anhydrides of Boc amino acids; conditions: for isolated yield: whole synthesis; for step yield: late stage modification step

Row | Substance | crude mass ([1]; scale 0.3 mmol) | isolated yield [2] | crude mass ([1]; scale 0.4 mmol) | step yield [2]
1 | Ac-YGWMT[NMeF]-NH2 | 110 mg | 11.6% | – | –
2 | Ac-Y[Nle]GW[Nle]T[NMeF]-NH2 | – | 31% | 480 mg | –
3 | PEPTIDE1{[ac].[Tyr(SO3H)].G.W.M.[Thr(SO3H)].[NMePhe].[am]}$$$$V2.0 | – | – | – | 61%
4 | PEPTIDE1{[ac].[Tyr(SO3H)].[Nle].G.W.[Nle].[Thr(SO3H)].[NMePhe].[am]}$$$$V2.0 | – | – | – | 66%
